In the supplement of paper PMC10849652:
The list shows a part of the results.

Amino acid sequences for entries named in this document (tags omitted). A change or cut given only in a name is not applied to a line headed by its entry.
UniProt Q8NG68: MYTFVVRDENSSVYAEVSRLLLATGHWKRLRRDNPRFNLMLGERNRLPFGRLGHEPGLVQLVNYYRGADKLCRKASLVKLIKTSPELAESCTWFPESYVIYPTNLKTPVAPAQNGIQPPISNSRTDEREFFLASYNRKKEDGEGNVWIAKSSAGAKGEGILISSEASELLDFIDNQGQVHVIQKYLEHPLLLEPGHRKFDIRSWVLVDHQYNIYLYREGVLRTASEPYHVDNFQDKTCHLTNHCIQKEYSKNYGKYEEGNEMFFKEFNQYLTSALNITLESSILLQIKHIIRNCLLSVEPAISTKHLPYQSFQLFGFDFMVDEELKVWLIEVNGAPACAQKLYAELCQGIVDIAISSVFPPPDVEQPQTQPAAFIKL
UniProt Q9BRZ2: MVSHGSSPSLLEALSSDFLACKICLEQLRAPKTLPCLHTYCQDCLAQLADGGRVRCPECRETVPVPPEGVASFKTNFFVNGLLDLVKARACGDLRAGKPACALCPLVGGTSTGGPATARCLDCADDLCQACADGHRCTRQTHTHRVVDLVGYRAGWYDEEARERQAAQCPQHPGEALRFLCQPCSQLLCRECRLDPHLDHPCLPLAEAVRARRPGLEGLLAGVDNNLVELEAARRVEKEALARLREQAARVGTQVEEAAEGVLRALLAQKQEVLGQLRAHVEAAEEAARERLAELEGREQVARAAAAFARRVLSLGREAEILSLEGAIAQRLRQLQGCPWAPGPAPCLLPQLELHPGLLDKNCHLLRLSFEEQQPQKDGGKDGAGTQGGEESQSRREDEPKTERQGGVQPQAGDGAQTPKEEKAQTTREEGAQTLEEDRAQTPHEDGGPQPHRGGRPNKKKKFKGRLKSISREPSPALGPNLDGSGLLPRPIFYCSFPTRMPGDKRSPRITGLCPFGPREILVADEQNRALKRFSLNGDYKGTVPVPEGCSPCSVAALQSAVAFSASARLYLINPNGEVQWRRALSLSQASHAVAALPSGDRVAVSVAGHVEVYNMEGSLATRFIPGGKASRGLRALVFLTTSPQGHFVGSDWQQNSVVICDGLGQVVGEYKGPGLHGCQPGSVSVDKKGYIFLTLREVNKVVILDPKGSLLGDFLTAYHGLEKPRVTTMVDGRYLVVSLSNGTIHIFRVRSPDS
UniProt Q14258, whole entry, looked up: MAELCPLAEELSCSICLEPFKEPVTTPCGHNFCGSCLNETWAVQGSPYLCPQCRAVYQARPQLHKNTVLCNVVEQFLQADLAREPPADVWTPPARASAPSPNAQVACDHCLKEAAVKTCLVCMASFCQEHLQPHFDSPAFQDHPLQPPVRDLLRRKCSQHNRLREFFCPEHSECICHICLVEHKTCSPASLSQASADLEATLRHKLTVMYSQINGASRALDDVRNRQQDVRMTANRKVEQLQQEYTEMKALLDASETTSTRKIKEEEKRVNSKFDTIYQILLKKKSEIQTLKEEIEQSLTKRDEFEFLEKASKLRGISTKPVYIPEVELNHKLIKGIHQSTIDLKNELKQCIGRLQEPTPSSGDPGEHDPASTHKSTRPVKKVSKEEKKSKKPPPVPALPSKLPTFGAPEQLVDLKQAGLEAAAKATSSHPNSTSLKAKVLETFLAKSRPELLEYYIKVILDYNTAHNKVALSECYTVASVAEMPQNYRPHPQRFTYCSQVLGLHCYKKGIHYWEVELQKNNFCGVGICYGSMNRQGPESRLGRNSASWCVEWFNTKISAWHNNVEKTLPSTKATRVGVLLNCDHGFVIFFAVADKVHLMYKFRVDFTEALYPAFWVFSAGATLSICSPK
UniProt Q9H3H1: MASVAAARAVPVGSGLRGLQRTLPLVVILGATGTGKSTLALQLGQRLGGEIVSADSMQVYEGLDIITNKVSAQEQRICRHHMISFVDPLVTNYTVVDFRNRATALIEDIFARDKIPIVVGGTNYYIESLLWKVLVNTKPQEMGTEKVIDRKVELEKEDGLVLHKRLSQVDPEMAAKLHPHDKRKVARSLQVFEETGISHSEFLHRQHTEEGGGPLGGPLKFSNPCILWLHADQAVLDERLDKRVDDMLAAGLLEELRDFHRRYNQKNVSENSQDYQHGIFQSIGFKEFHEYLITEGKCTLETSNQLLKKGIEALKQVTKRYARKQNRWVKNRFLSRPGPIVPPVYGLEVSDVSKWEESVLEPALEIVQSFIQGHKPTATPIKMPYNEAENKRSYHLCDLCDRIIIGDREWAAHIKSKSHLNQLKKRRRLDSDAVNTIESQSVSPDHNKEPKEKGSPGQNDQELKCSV
UniProt P49815: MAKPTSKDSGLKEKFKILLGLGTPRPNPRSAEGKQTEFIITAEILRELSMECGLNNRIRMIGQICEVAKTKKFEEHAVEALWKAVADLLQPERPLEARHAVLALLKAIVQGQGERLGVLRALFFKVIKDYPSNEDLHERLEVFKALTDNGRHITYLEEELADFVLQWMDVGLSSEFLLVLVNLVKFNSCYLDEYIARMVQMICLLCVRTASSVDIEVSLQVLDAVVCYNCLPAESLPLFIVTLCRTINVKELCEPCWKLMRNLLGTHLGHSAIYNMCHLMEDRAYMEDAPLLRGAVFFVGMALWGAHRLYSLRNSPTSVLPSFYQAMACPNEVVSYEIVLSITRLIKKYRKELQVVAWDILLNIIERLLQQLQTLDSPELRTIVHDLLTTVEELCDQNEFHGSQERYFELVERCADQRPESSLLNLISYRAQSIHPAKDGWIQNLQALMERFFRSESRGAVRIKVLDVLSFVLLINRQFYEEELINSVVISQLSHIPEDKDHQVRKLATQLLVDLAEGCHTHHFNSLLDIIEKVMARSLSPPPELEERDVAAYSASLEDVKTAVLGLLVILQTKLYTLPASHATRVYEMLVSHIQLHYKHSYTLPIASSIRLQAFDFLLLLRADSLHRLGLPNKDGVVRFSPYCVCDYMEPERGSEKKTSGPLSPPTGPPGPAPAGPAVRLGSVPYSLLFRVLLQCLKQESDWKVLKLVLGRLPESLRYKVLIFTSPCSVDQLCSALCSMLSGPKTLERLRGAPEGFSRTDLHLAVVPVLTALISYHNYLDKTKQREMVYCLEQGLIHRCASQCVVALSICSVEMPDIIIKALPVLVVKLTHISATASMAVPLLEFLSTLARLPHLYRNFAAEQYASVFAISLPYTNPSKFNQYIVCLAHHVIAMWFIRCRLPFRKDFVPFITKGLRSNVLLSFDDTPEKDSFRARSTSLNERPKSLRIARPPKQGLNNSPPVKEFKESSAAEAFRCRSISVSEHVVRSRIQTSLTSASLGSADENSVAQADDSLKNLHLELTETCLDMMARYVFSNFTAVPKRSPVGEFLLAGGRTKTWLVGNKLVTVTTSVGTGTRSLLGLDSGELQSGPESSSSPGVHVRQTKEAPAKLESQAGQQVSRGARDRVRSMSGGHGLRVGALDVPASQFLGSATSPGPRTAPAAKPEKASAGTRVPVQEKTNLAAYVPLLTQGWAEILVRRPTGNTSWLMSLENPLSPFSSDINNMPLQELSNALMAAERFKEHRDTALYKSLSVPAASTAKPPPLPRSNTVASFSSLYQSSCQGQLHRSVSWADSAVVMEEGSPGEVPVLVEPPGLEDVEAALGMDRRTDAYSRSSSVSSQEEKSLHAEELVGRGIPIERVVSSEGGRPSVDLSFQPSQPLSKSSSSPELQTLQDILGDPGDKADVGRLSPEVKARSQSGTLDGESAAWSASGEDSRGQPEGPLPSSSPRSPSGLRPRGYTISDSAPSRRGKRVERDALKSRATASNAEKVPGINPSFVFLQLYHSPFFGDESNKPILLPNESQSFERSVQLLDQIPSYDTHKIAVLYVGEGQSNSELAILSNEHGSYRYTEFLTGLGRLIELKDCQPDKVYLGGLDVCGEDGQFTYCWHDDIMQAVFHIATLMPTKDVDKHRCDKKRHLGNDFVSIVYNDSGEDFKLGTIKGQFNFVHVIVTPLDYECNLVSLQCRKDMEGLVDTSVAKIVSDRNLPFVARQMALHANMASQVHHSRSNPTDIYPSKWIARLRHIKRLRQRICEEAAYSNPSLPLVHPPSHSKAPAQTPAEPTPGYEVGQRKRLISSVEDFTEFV
UniProt Q8N5M4: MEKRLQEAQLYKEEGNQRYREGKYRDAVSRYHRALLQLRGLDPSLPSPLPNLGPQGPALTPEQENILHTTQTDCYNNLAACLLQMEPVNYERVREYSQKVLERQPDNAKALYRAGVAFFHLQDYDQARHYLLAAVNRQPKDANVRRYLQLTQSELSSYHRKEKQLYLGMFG
UniProt Q99598: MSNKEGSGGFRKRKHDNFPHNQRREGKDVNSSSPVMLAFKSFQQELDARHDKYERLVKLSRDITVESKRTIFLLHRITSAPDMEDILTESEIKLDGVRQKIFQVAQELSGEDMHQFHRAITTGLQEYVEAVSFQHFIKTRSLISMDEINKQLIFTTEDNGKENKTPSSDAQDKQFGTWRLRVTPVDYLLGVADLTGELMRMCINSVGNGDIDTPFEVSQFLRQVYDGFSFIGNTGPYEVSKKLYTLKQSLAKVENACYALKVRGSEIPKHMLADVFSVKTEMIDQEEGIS
UniProt Q96Q05, whole entry, looked up: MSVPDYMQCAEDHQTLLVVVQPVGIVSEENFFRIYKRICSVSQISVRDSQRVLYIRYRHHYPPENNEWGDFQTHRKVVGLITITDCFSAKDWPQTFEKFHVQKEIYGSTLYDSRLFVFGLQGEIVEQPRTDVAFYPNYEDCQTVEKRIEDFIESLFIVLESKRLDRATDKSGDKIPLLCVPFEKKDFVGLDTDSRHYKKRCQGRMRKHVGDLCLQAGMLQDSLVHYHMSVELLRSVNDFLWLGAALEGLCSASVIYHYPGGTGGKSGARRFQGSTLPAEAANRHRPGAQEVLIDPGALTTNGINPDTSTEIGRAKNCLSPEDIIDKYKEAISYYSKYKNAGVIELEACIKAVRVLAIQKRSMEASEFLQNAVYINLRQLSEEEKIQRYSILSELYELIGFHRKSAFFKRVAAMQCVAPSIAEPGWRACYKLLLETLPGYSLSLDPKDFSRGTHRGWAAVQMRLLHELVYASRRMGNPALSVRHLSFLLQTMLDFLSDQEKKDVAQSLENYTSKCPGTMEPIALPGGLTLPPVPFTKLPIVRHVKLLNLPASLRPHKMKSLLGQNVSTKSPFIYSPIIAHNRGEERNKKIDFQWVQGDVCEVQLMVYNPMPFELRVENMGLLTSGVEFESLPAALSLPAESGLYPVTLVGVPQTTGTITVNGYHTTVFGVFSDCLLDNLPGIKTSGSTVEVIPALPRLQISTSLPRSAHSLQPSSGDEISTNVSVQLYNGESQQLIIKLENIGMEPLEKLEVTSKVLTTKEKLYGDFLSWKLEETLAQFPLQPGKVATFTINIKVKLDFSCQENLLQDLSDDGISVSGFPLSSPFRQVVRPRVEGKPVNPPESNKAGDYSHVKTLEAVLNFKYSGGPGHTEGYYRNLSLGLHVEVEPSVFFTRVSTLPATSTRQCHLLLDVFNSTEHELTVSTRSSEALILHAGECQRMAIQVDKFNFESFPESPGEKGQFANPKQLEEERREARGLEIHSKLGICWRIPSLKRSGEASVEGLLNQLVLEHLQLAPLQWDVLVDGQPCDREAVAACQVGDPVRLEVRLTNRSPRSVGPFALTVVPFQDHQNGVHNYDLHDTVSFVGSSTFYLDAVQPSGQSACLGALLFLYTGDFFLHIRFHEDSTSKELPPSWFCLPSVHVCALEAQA
UniProt O00635: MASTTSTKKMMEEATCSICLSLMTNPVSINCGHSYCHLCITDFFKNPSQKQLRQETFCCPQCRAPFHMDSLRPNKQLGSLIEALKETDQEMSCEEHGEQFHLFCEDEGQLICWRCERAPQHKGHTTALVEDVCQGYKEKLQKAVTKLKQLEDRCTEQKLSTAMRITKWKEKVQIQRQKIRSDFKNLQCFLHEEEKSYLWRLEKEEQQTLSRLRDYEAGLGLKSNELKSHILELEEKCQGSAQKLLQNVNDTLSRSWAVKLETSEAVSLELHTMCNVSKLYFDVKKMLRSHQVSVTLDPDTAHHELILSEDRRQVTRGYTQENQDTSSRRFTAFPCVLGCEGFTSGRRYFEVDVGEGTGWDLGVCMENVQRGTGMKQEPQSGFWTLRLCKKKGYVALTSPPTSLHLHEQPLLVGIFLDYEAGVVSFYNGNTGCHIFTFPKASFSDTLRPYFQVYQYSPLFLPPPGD
UniProt Q15654: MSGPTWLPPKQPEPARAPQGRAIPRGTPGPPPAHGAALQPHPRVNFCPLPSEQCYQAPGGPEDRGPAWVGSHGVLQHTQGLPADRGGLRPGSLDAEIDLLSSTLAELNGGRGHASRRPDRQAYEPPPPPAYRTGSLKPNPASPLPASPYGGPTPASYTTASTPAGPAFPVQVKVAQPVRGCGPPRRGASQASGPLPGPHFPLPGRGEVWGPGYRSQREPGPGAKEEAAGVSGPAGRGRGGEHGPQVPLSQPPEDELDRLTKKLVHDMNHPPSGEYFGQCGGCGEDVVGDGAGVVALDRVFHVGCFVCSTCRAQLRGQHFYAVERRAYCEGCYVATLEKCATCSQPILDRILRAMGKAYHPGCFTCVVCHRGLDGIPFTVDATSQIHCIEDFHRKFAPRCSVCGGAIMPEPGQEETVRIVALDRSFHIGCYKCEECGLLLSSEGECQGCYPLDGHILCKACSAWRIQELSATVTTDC

Assays:
Experiment in all cases: log2 fold change, soluble protein after heating vs DMSO (PISA); higher = thermal stabilisation; K562 lysate, 10 uM; active = over 0.2 and 3.5 SD of the protein, either way, in both replicates (recomputed)
[1] = compound: CCCS(=O)(=O)Nc1ccc(F)c(C(=O)c2c[nH]c3ncc(-c4ccc(Cl)cc4)cc23)c1F [vemurafenib]
Summary of the method: (§1)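 Values give the log-two fold change in thermal stability against solvent controls, from duplicates. Crude K562 extract at 1 mg/mL protein, made by dounce homogenisation in PBS pH 7.4 with 1 mM MgCl2, was treated with 10 μM compound for 30 min. After 3 min heating across 48°C-58°C, aliquots were pooled, adjusted to 0.5% NP-40 at 4°C and centrifuged at 21,000xg for 90 min. The supernatant was measured by TMTpro 16plex LC-MS/MS with channel sums equalised.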

[2] = compound: CCCS(=O)(=O)Nc1ccc(F)c(C(=O)c2c[nH]c3ncc(Cl)cc23)c1F
Summary of the method: as §1

[3] = compound: CCN(CCCOc1ccc2c(Nc3cc(CC(=O)Nc4cccc(F)c4)[nH]n3)ncnc2c1)CCOP(=O)(O)O [barasertib]
Summary of the method: as §1

[4] = compound: CC[C@@H]1C(=O)N(C)c2cnc(Nc3ccc(C(=O)NC4CCN(C)CC4)cc3OC)nc2N1C1CCCC1
Summary of the method: as §1

[5] = compound: CC[C@@H]1C(=O)N(C)c2cnc(Nc3ccc(C(=O)N[C@H]4CC[C@H](N5CCN(CC6CC6)CC5)CC4)cc3OC)nc2N1C(C)C [volasertib]
Summary of the method: as §1

[6] = compound: CCn1c(C(=O)N(C2CC2)C2CC2)cc2c3c(ncn3C)c(Nc3cc(C)n(C)n3)nc21
Summary of the method: as §1

[7] = compound: CCn1cc(-c2ccnc3[nH]c(-c4cccc(CN(C)C)c4)cc23)c(-c2ccc(NC(=O)N(C)C)cc2)n1
Summary of the method: as §1

[8] = compound: CN1CCC(CNc2ccc3ncc(-c4cccc(OC(F)(F)F)c4)n3n2)CC1
Summary of the method: as §1

[9] = compound: CN1CCN(CCOc2cc(OC3CCOCC3)c3c(Nc4c(Cl)ccc5c4OCO5)ncnc3c2)CC1 [saracatinib]
Summary of the method: as §1

[10] = compound: CN1CCN(c2nc(C3=C(c4c[nH]c5ccccc45)C(=O)NC3=O)c3ccccc3n2)CC1 [sotrastaurin]
Summary of the method: as §1

[11] = compound: CN1CC[C@H](c2c(O)cc(O)c3c(=O)cc(-c4ccccc4Cl)oc23)[C@H](O)C1 [alvocidib]
Summary of the method: as §1

[12] = compound: CN1CCc2c(c3ccccc3n2Cc2ccc(C(=O)NO)cc2)C1 [Tubastatin A]
Summary of the method: as §1

[13] = compound: CNC(=O)C1=CC=CC=C1NC2=NC(=NC=C2Cl)NC3=C(C=C(C=C3)N4CCOCC4)OC
Summary of the method: as §1

[14] = compound: CNC(=O)c1ccc(Nc2ncc(C(F)(F)F)c(NCc3nccnc3N(C)S(C)(=O)=O)n2)cc1 [defactinib]
Summary of the method: as §1

[15] = compound: CNc1nc(-c2ccc3c(N)n[nH]c3c2)cc(N2C[C@@H](C(=O)NC3CCCCC3)CC[C@H]2C)n1
Summary of the method: as §1

[16] = compound: COC(=O)N[C@@H](C)CNc1nccc(-c2cn(C(C)C)nc2-c2cc(Cl)cc(NS(C)(=O)=O)c2F)n1 [encorafenib]
Summary of the method: as §1

[17] = compound: COC(=O)[C@H](CCSC)NC(=O)C1=C(C=C(C=C1)NC[C@H](CS)N)C2=CC=CC=C2
Summary of the method: as §1

[18] = compound: COc1cc(Nc2ncc3c(n2)-c2ccc(Cl)cc2C(c2c(F)cccc2OC)=NC3)ccc1C(=O)O [alisertib]
Summary of the method: as §1

[19] = compound: COc1cc2nc(-c3cc(F)ccc3O)nc(N[C@@H]3CNC[C@H]3C(C)(C)O)c2cc1OC
Summary of the method: as §1

[20] = compound: COc1cc2ncnc(Nc3ccc(F)c(Cl)c3)c2cc1OCCCN1CCOCC1 [gefitinib]
Summary of the method: as §1

Target	log2 fold change [1]	log2 fold change [2]	log2 fold change [3]	log2 fold change [4]	log2 fold change [5]	log2 fold change [6]	log2 fold change [7]	log2 fold change [8]	log2 fold change [9]	log2 fold change [10]	log2 fold change [11]	log2 fold change [12]	log2 fold change [13]	log2 fold change [14]	log2 fold change [15]	log2 fold change [16]	log2 fold change [17]	log2 fold change [18]	log2 fold change [19]	log2 fold change [20]
TTL (UniProt Q8NG68)	inactive: -0.066	inactive: 0.053	inactive: 0	inactive: -0.231	inactive: -0.116	inactive: 0.021	inactive: 0.009	inactive: -0.044	inactive: -0.068	inactive: 0.078	inactive: 0.112	inactive: -0.143	inactive: 0.015	inactive: -0.065	inactive: 0.001	inactive: 0.079	inactive: 0.144	inactive: -0.027	inactive: 0.019	inactive: 0.112
TRMT5 (UniProt Q32P41)	inactive: -0.007	inactive: 0.008	inactive: -0.007	inactive: -0.035	inactive: -0.074	inactive: 0.075	inactive: -0.03	inactive: -0.043	inactive: 0.026	inactive: 0.095	inactive: 0.019	inactive: -0.176	inactive: 0.027	inactive: -0.049	inactive: -0.046	inactive: -0.003	inactive: 0.216	inactive: 0.035	inactive: 0.009	inactive: -0.022
TRMT11 (UniProt Q7Z4G4)	inactive: -0.031	inactive: 0.016	inactive: -0.033	inactive: 0.029	inactive: -0.002	inactive: 0.014	inactive: 0.134	inactive: 0.028	inactive: -0.004	inactive: 0.02	inactive: -0.008	inactive: 0.008	inactive: 0.081	inactive: 0.066	inactive: -0.013	inactive: -0.022	inactive: -0.06	inactive: -0.018	inactive: -0.02	inactive: 0.013
TRIM56 (UniProt Q9BRZ2)	inactive: 0.026	inactive: 0.026	inactive: -0.039	inactive: 0.006	inactive: -0.029	inactive: -0.04	inactive: 0.227	inactive: -0.102	inactive: 0.031	inactive: -0.019	inactive: -0.013	inactive: -0.13	inactive: 0.067	inactive: 0.008	inactive: -0.059	inactive: 0.068	inactive: -0.21	inactive: 0.04	inactive: 0.001	inactive: -0.01
TRIM25 (UniProt Q14258)	inactive: 0.017	inactive: 0.012	inactive: 0.001	inactive: -0.024	inactive: -0.006	inactive: -0.007	inactive: 0.029	inactive: -0.035	inactive: -0.002	inactive: -0.05	inactive: 0.022	inactive: -0.04	inactive: 0.009	inactive: -0.009	inactive: 0.042	inactive: -0.011	inactive: -0.058	inactive: -0.01	inactive: -0.002	inactive: -0.029
TRIT1 (UniProt Q9H3H1)	inactive: 0.067	inactive: 0.008	inactive: -0.015	inactive: -0.002	inactive: -0.061	inactive: 0.028	inactive: -0.029	inactive: -0.041	inactive: 0.04	inactive: 0.025	inactive: 0.043	inactive: -0.066	inactive: 0.035	inactive: -0.007	inactive: -0.024	inactive: 0.003	inactive: 0.034	inactive: -0.074	inactive: 0.026	inactive: 0.05
TSC2 isoform 4 (UniProt P49815)	inactive: -0.033	inactive: 0.048	inactive: -0.004	inactive: -0.004	inactive: -0.114	inactive: -0.025	inactive: 0.07	inactive: -0.012	inactive: 0.061	inactive: 0.005	inactive: -0.016	inactive: -0.082	inactive: -0.007	inactive: 0.007	inactive: 0.064	inactive: 0.028	inactive: -0.063	inactive: -0.087	inactive: 0.042	inactive: -0.019
TTC27 (UniProt Q6P3X3)	inactive: 0.015	inactive: 0.007	inactive: 0.028	inactive: -0.07	inactive: -0.074	inactive: 0.015	inactive: -0.085	inactive: -0.058	inactive: 0.055	inactive: 0.051	inactive: 0.012	inactive: -0.148	inactive: -0.049	inactive: 0.023	inactive: -0.007	inactive: 0.028	inactive: 0.057	inactive: 0.027	inactive: 0.012	inactive: 0.02
TRAPPC2L (UniProt Q9UL33)	inactive: -0.092	inactive: -0.008	inactive: 0.141	inactive: 0.022	inactive: 0.006	inactive: -0.053	inactive: -0.067	inactive: -0.005	inactive: -0.034	inactive: 0.02	inactive: 0.005	inactive: 0.031	inactive: 0.013	inactive: 0.024	inactive: -0.01	inactive: 0.068	inactive: -0.084	inactive: -0.148	inactive: -0.015	inactive: -0.01
TTC12 isoform 2 (UniProt Q9H892)	inactive: 0.025	inactive: 0.061	inactive: 0.053	inactive: -0.049	inactive: 0.063	inactive: -0.121	inactive: -0.208	inactive: 0.079	inactive: 0.038	inactive: -0.055	inactive: -0.024	inactive: -0.279	inactive: -0.06	inactive: -0.05	inactive: -0.041	inactive: -0.052	inactive: -0.03	inactive: -0.145	inactive: -0.043	inactive: 0.137
TTC9C (UniProt Q8N5M4)	inactive: 0.017	inactive: -0.004	inactive: -0.011	inactive: 0.047	inactive: -0.043	inactive: -0.051	inactive: -0.266	inactive: 0.051	inactive: -0.022	inactive: -0.004	inactive: -0.035	inactive: 0.022	inactive: 0.035	inactive: 0.016	inactive: 0.016	inactive: 0.014	inactive: -0.066	inactive: -0.127	inactive: 0.009	inactive: -0.133
TSNAX (UniProt Q99598)	inactive: 0.005	inactive: -0.004	inactive: -0.024	inactive: 0.021	inactive: 0.009	inactive: -0.036	inactive: -0.023	inactive: 0.037	inactive: 0.027	inactive: 0.002	inactive: 0.008	inactive: 0.06	inactive: -0.008	inactive: -0.002	inactive: 0	inactive: 0.002	inactive: -0.012	inactive: 0.005	inactive: 0.021	inactive: -0.005
TRAPPC9 isoform 2 (UniProt Q96Q05)	inactive: 0.053	inactive: 0.001	inactive: 0.007	inactive: -0.004	inactive: -0.059	inactive: 0.021	inactive: 0.011	inactive: 0.019	inactive: 0.005	inactive: -0.035	inactive: -0.017	inactive: -0.128	inactive: 0.002	inactive: -0.011	inactive: -0.075	inactive: 0.022	inactive: -0.015	inactive: -0.036	inactive: 0.021	inactive: -0.017
TRAPPC6A isoform 2 (UniProt O75865)	inactive: -0.144	inactive: 0.027	inactive: -0.001	active: -0.288	inactive: -0.035	inactive: -0.072	inactive: -0.228	inactive: -0.096	inactive: 0.001	inactive: -0.042	inactive: 0.059	inactive: -0.006	inactive: 0.011	inactive: -0.026	inactive: -0.017	inactive: -0.142	inactive: -0.027	inactive: -0.052	inactive: 0	inactive: -0.043
TRIM38 (UniProt O00635)	inactive: 0.04	inactive: 0.05	inactive: 0.045	inactive: -0.087	inactive: -0.025	inactive: 0.021	inactive: 0.118	inactive: -0.038	inactive: 0.093	inactive: 0.05	inactive: 0.013	inactive: -0.167	inactive: 0.056	inactive: -0.026	inactive: -0.029	inactive: 0.074	inactive: 0.071	inactive: -0.107	inactive: 0.019	inactive: 0.008
TRIP6 (UniProt Q15654)	inactive: -0.009	inactive: 0.021	inactive: -0.05	inactive: 0.027	inactive: -0.034	inactive: -0.021	inactive: -0.027	inactive: 0.021	inactive: 0.019	inactive: -0.034	inactive: -0.004	inactive: -0.003	inactive: 0.034	inactive: -0.019	inactive: 0.076	inactive: -0.009	inactive: -0.104	inactive: 0.005	inactive: -0.014	inactive: -0.048

Single entries from the results shown:
log2 fold change [19] with TRAPPC9 isoform 2 (UniProt Q96Q05) is entered as inactive: 0.021
log2 fold change [19] with TTC12 isoform 2 (UniProt Q9H892) is entered as inactive: -0.043
